Data from the supplement of paper PMC6411743.
± gives the standard deviation of the averaged measurements. Only a part is listed here, and it is no random draw.

The chains behind the UniProt entries cited, without tags or fusion partners. Where a name states a change or a piece, a line headed by the entry shows the natural chain unless it says otherwise.
UniProt Q9NTW7: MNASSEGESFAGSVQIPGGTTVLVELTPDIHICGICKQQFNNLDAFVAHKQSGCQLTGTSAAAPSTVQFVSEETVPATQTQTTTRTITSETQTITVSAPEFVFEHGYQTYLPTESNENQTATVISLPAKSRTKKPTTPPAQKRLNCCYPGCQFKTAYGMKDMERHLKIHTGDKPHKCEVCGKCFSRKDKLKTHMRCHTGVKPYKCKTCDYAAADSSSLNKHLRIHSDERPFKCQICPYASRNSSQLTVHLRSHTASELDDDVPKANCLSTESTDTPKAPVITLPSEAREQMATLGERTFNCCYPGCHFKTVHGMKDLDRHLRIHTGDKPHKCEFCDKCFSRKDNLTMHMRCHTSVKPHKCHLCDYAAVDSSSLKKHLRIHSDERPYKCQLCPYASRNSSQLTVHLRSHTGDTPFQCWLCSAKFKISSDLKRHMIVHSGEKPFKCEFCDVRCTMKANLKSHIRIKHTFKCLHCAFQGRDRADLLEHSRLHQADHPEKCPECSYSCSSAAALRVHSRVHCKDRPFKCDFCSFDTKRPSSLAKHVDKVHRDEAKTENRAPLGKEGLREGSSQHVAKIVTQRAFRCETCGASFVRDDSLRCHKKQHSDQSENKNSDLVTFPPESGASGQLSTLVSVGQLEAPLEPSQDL
UniProt Q9NZ45: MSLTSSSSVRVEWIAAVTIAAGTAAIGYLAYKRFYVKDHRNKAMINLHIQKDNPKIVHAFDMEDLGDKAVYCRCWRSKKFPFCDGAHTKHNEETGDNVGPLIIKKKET
UniProt Q9NTX5: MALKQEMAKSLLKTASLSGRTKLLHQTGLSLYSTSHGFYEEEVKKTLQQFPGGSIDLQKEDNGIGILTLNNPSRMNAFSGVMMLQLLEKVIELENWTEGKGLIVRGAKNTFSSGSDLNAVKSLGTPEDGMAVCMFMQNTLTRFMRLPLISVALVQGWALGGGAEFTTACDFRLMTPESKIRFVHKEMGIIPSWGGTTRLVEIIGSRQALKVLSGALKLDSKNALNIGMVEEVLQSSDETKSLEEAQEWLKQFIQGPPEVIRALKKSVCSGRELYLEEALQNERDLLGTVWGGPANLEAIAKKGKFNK
UniProt Q9P013: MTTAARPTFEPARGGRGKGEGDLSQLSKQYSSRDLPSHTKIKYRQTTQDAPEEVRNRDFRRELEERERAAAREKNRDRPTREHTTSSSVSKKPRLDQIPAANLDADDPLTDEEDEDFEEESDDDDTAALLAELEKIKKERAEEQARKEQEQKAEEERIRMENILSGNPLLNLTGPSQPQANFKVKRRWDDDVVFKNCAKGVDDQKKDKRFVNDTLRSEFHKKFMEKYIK
UniProt Q9P0P0: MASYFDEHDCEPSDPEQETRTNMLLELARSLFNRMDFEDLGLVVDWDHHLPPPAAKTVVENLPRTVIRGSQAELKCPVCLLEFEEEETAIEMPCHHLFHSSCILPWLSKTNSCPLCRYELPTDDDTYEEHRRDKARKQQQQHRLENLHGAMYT
UniProt Q9NZ63: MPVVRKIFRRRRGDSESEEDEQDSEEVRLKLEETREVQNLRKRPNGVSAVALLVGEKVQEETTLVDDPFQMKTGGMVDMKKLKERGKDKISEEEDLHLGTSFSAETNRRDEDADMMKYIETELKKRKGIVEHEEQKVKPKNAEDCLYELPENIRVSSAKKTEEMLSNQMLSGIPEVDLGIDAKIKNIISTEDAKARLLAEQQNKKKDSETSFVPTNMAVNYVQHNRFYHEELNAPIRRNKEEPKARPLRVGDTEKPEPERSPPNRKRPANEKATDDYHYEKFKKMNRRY
UniProt Q9NSK0: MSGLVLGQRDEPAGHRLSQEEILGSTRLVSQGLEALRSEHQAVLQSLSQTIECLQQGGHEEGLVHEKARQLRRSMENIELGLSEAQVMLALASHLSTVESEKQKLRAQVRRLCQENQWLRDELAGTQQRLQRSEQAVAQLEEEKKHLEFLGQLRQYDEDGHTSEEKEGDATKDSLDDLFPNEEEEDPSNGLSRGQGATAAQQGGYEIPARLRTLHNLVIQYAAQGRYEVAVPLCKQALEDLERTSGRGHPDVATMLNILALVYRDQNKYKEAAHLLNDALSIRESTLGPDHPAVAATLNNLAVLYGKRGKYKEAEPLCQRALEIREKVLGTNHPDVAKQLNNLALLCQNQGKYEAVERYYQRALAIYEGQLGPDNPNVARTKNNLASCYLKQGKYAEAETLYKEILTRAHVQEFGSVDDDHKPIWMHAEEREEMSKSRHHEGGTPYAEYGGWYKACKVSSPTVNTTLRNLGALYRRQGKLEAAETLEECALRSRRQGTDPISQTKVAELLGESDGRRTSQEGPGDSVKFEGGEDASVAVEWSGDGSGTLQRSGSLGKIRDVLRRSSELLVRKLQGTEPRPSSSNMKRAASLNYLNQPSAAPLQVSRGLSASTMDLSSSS
UniProt Q9NW81: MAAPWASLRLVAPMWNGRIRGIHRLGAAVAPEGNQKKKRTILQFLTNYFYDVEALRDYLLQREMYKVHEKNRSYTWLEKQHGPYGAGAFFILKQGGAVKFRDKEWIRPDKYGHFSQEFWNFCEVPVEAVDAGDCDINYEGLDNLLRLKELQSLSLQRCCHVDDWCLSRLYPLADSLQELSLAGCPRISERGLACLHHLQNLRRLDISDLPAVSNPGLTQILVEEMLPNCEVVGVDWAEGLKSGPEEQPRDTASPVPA
UniProt Q9P086: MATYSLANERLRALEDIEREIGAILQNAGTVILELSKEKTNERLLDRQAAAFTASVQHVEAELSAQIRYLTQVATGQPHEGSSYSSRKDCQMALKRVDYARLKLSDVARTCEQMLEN
UniProt Q9NPF2: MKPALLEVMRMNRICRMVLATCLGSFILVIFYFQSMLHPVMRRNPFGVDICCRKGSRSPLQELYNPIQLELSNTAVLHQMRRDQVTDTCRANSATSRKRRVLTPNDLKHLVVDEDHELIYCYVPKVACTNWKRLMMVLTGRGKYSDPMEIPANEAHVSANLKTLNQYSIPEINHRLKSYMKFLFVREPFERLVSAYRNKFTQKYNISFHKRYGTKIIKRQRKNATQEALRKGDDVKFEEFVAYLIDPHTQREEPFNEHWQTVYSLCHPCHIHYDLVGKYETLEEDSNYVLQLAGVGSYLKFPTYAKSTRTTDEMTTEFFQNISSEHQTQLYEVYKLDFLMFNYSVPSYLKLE
UniProt Q9NQH7: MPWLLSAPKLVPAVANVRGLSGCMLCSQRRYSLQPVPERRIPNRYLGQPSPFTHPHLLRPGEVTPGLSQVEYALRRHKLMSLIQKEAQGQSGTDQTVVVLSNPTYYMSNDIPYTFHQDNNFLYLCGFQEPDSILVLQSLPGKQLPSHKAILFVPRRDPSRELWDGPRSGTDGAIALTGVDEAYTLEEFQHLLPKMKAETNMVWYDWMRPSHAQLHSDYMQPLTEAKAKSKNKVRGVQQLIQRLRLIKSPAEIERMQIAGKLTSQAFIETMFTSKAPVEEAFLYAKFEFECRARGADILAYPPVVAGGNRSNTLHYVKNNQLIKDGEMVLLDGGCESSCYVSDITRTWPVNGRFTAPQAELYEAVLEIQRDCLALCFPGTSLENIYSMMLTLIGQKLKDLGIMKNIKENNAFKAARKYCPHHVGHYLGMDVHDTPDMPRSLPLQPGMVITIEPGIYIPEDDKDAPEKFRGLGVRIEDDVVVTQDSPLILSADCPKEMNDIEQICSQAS
UniProt Q9NUB1: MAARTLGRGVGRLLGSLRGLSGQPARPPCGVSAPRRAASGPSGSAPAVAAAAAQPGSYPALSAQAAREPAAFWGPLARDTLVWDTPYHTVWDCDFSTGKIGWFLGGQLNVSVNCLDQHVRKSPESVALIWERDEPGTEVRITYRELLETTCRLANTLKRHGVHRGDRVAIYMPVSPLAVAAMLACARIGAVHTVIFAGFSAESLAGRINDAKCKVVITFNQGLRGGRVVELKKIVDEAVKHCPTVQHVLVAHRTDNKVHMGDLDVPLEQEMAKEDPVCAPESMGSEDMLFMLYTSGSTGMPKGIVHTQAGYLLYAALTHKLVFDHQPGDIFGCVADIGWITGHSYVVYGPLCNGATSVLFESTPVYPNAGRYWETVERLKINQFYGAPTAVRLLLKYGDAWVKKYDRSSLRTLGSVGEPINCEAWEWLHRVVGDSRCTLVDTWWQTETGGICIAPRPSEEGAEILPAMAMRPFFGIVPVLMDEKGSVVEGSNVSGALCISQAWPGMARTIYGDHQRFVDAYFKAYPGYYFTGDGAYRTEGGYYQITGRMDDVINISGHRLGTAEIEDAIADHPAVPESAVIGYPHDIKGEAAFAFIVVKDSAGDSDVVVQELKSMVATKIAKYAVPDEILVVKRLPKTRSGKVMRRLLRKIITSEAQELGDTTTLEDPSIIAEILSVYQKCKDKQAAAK
UniProt Q9NZB8: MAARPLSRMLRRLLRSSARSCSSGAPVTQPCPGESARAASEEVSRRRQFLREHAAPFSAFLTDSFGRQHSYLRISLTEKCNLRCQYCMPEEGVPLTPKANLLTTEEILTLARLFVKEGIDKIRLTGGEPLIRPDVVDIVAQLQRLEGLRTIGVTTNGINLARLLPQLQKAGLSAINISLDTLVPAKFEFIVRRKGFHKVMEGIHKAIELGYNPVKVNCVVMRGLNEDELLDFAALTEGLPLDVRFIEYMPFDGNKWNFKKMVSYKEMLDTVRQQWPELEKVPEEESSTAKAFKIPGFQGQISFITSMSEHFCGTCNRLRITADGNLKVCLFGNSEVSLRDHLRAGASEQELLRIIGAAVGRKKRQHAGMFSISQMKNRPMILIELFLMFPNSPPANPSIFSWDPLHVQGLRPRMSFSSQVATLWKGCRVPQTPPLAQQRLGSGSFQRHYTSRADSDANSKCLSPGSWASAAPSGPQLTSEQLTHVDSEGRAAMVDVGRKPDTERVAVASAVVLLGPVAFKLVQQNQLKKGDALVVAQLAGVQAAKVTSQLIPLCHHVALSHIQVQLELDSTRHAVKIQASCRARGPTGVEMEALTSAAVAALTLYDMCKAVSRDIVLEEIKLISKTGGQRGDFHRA
UniProt Q9NY27: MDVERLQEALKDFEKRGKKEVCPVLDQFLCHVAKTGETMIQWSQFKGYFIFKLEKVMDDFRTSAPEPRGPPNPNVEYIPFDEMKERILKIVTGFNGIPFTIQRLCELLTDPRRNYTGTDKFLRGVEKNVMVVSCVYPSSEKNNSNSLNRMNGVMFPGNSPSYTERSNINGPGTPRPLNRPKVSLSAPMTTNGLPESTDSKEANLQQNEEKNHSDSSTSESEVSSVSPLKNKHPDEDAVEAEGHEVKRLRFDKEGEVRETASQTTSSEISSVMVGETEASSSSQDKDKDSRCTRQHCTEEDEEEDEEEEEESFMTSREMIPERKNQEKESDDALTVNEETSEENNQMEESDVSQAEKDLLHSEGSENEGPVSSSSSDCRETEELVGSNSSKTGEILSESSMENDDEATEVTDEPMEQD

Compound: Nc1ncnc2c1ncn2[C@@H]1O[C@H](COP(=O)(O)OP(=O)(O)OP(=O)(O)O)[C@@H](O)[C@H]1O [adenosine triphosphate]
Test: NP40-soluble protein abundance relative to vehicle (solubility fold change) (ratio); higher = more soluble protein in presence of ATP
Outline: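 Jurkat crude lysate prepared with a Dounce homogeniser was treated at eight concentrations spanning 0.1 to 10 mM, 10 min at room temperature then 3 min at 37 °C. Solubilisation with 0.8% NP40 and benzonase and ultracentrifugation preceded TMT labelling of the supernatant for LC-MS/MS. Fold change against the detergent-processed vehicle was determined per replicate from vsn-normalised intensities, across three independent experiments.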

Target	NP40-soluble protein abundance (concentration: 1mM)	NP40-soluble protein abundance (concentration: 2mM)	NP40-soluble protein abundance (concentration: 4mM)	NP40-soluble protein abundance (concentration: 6mM)	NP40-soluble protein abundance (concentration: 8mM)	NP40-soluble protein abundance (concentration: 10mM)
Q9NPA5 and related entries (UniProt Q9NTW7)	0.992 ± 0.033	0.985 ± 0.065	0.97 ± 0.088	0.919 ± 0.026	1.04 ± 0.043	1.02 ± 0.12
CISD1 (UniProt Q9NZ45)	0.999 ± 0.09	1.02 ± 0.045	1.01 ± 0.052	0.979 ± 0.044	0.989 ± 0.018	0.909 ± 0.095
UniProt Q9NTX5 and related entries	0.94 ± 0.015	0.938 ± 0.038	0.931 ± 0.029	0.933 ± 0.036	0.93 ± 0.029	0.93 ± 0.034
CWC15 (UniProt Q9P013)	0.943 ± 0.11	0.922 ± 0.07	0.92 ± 0.08	0.978 ± 0.092	1.04 ± 0.03	0.989 ± 0.1
RNF181 (UniProt Q9P0P0)	0.945 ± 0.078	0.969 ± 0.067	0.972 ± 0.051	0.982 ± 0.069	0.949 ± 0.038	0.915 ± 0.057
C9orf78 (UniProt Q9NZ63)	0.898 ± 0.039	0.904 ± 0.0054	0.88 ± 0.014	0.935 ± 0.029	0.901 ± 0.028	0.873 ± 0.027
KLC4 (UniProt Q9NSK0)	0.868 ± 0.065	0.877 ± 0.042	0.861 ± 0.039	0.885 ± 0.026	0.837 ± 0.035	0.863 ± 0.041
UniProt Q9NW81 and related entries	1.01 ± 0.067	1.01 ± 0.032	0.981 ± 0.024	1.03 ± 0.06	1.04 ± 0.017	1.06 ± 0.059
MED11 (UniProt Q9P086)	0.976 ± 0.25	1.02 ± 0.23	1.14 ± 0.21	1.09 ± 0.3	1.02 ± 0.14	1 ± 0.14
MRPL40 (UniProt Q9NQ50)	1.05 ± 0.15	0.984 ± 0.088	0.998 ± 0.17	1.03 ± 0.3	1.04 ± 0.21	0.97 ± 0.12
UniProt Q9NPF2 and related entries	0.878 ± 0.076	0.9 ± 0.028	0.863 ± 0.017	0.909 ± 0.029	0.917 ± 0.088	0.916 ± 0.059
UniProt Q9NQH7 and related entries	1.06 ± 0.087	0.996 ± 0.057	1.02 ± 0.035	0.987 ± 0.059	1.03 ± 0.017	1 ± 0.044
UniProt Q9NUB1 and related entries	1.01 ± 0.07	1.01 ± 0.071	0.98 ± 0.073	0.94 ± 0.1	1.01 ± 0.069	0.989 ± 0.081
UniProt Q9NZB8 and related entries	0.991 ± 0.026	0.985 ± 0.017	0.94 ± 0.031	0.941 ± 0.052	0.965 ± 0.021	0.965 ± 0.029
PPP4R2 (UniProt Q9NY27)	0.918 ± 0.077	0.953 ± 0.032	0.93 ± 0.051	0.984 ± 0.04	0.927 ± 0.038	0.933 ± 0.014

Nothing new here: an excerpt of the list.
Target	NP40-soluble protein abundance (concentration: 1mM)	NP40-soluble protein abundance (concentration: 2mM)	NP40-soluble protein abundance (concentration: 4mM)	NP40-soluble protein abundance (concentration: 6mM)	NP40-soluble protein abundance (concentration: 8mM)	NP40-soluble protein abundance (concentration: 10mM)
UniProt Q9NPF2 and related entries	0.878 ± 0.076	0.9 ± 0.028	0.863 ± 0.017	0.909 ± 0.029	0.917 ± 0.088	0.916 ± 0.059
UniProt Q9NQH7 and related entries	1.06 ± 0.087	0.996 ± 0.057	1.02 ± 0.035	0.987 ± 0.059	1.03 ± 0.017	1 ± 0.044
